# The supplement of paper PMC8728848
# This is one part of the list.
# Key:
# Assay in all cases: glycan array binding signal (z-score within array); higher = stronger binding
# Details in all cases: glycan notation: IUPAC condensed, linker removed
# [1] = biological target: Gal(a1-3)GlcNAc
# Outline: (§1)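 Glycan array data came from 3228 arrays in the Consortium for Functional Glycomics database, and only arrays with an available protein sequence were kept. Glycan names were put into IUPAC-condensed notation, and columns mapping to the same glycan were averaged. The binding signal is a within-array Z-score, averaged across arrays of one protein sequence run at different concentrations or buffers and across linkers. A negative Z-score can be read as non-binding.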
# [2] = biological target: Gal(a1-3)[Gal(a1-4)]Gal(b1-4)GlcNAc
# Outline: as §1
# [3] = biological target: Gal(a1-4)Gal(b1-4)Gal
# Outline: as §1
# [4] = biological target: Gal(a1-4)Gal(b1-4)GalNAc
# Outline: as §1
# [5] = biological target: Gal(a1-4)Gal(b1-4)Glc
# Outline: as §1
# [6] = biological target: Gal(a1-4)Gal(b1-4)GlcNAc
# Outline: as §1
# [7] = biological target: Gal(a1-4)GlcNAc
# Outline: as §1
# [8] = biological target: Gal(a1-6)Glc
# Outline: as §1
# [9] = biological target: Gal(b1-2)Gal
# Outline: as §1
# [10] = biological target: Gal(b1-3)Gal
# Outline: as §1
# [11] = biological target: Gal(b1-3)GalNAc
# Outline: as §1
# [12] = biological target: Gal(b1-3)GalNAc(b1-3)Gal(a1-4)Gal(b1-4)Glc
# Outline: as §1
# [13] = biological target: Gal(b1-3)GalNAc(b1-3)Gal(b1-4)Glc
# Outline: as §1
# [14] = biological target: Gal(b1-3)GalNAc(b1-3)Gal(b1-4)GlcNAc
# Outline: as §1
# [15] = biological target: Gal(b1-3)GalNAc(b1-4)Gal(b1-4)Glc
# Outline: as §1
# [16] = biological target: Gal(b1-3)GalNAc(b1-4)[Neu5Ac(a2-3)]Gal(b1-4)Glc
# Outline: as §1
# [17] = biological target: Gal(b1-3)GlcNAc
# Outline: as §1
# [18] = biological target: Gal(b1-3)GlcNAc(b1-3)Gal(b1-3)GlcNAc
# Outline: as §1
# [19] = biological target: Gal(b1-3)GlcNAc(b1-3)Gal(b1-4)Glc
# Outline: as §1
# [20] = biological target: Gal(b1-3)[Fuc(a1-4)]GlcNAc
# Outline: as §1
# [21] = biological target: Gal(b1-3)[Fuc(a1-4)]GlcNAc(b1-3)Gal(b1-3)[Fuc(a1-4)]GlcNAc
# Outline: as §1
# [22] = biological target: Gal(b1-3)[Fuc(a1-4)]GlcNAc(b1-3)Gal(b1-4)GlcNAc
# Outline: as §1
# [23] = biological target: Gal(b1-3)[Fuc(a1-4)]GlcNAc(b1-3)Gal(b1-4)[Fuc(a1-3)]GlcNAc
# Outline: as §1
# [24] = biological target: Gal(b1-3)[GlcNAc(b1-6)]GalNAc
# Outline: as §1
# [25] = biological target: Gal(b1-3)[GlcNAc(b1-6)]GlcNAc
# Outline: as §1
# [26] = biological target: Gal(b1-3)[Neu5Ac(a2-6)]GalNAc
# Outline: as §1
# [27] = biological target: Gal(b1-3)[Neu5Ac(a2-6)]GlcNAc
# Outline: as §1
# [28] = biological target: Gal(b1-3)[Neu5Ac(a2-6)]GlcNAc(a1-4)Gal(b1-4)Glc
# Outline: as §1
# [29] = biological target: Gal(b1-3)[Neu5Ac(a2-6)]GlcNAc(b1-4)Gal(b1-4)Glc
# Outline: as §1
# [30] = biological target: Gal(b1-3)[Neu5Ac(b2-6)]GalNAc
# Outline: as §1
# [31] = biological target: Gal(b1-3)[Neu5Ac(b2-6)]GlcNAc
# Outline: as §1
# [32] = biological target: Gal(b1-4)GalNAc(a1-3)[Fuc(a1-2)]Gal(b1-4)GlcNAc
# Outline: as §1
# [33] = biological target: Gal(b1-4)GalNAc(b1-3)[Fuc(a1-2)]Gal(b1-4)GlcNAc
# Outline: as §1
# [34] = biological target: Gal(b1-4)Glc
# Outline: as §1
# [35] = biological target: Gal(b1-4)Glc6S
# Outline: as §1
# [36] = biological target: Gal(b1-4)GlcNAc
# Outline: as §1
# [37] = biological target: Gal(b1-4)GlcNAc(b1-2)Man(a1-3)[Gal(b1-4)GlcNAc(b1-2)Man(a1-6)]Man(b1-4)GlcNAc(b1-4)GlcNAc
# Outline: as §1
# [38] = biological target: Gal(b1-4)GlcNAc(b1-3)Gal(b1-3)GlcNAc
# Outline: as §1
# [39] = biological target: Gal(b1-4)GlcNAc(b1-3)Gal(b1-4)Glc
# Outline: as §1
# [40] = biological target: Gal(b1-4)GlcNAc(b1-3)Gal(b1-4)GlcNAc
# Outline: as §1
# [41] = biological target: Gal(b1-4)GlcNAc(b1-3)Gal(b1-4)GlcNAc(b1-3)Gal(b1-4)GlcNAc
# Outline: as §1
# [42] = biological target: Gal(b1-4)GlcNAc(b1-3)Gal(b1-4)[Fuc(a1-3)]GlcNAc(b1-3)Gal(b1-4)[Fuc(a1-3)]GlcNAc
# Outline: as §1
# [43] = biological target: Gal(b1-4)GlcNAc(b1-3)GalNAc
# Outline: as §1
# [44] = biological target: Gal(b1-4)GlcNAc(b1-3)[Gal(b1-4)GlcNAc(b1-6)]GalNAc
# Outline: as §1
# [45] = biological target: Gal(b1-4)GlcNAc(b1-6)GalNAc
# Outline: as §1
# [46] = biological target: Gal(b1-4)GlcNAc(b1-6)[Gal(b1-3)]GalNAc
# Outline: as §1
# [47] = biological target: Gal(b1-4)GlcNAc(b1-6)[Gal(b1-3)]GlcNAc
# Outline: as §1
# [48] = biological target: Gal3S(b1-3)GalNAc
# Outline: as §1
# [49] = biological target: Gal3S(b1-3)GlcNAc
# Outline: as §1
# [50] = biological target: Gal3S(b1-3)[Fuc(a1-4)]GlcNAc
# Outline: as §1
# [51] = biological target: Gal3S(b1-4)Glc
# Outline: as §1
# [52] = biological target: Gal3S(b1-4)Glc6S
# Outline: as §1
# [53] = biological target: Gal3S(b1-4)GlcNAc
# Outline: as §1
# [54] = biological target: Gal3S(b1-4)GlcNAc6S
# Outline: as §1
# [55] = biological target: Gal3S6S(b1-4)GlcNAc
# Outline: as §1
# [56] = biological target: Gal3S6S(b1-4)GlcNAc6S
# Outline: as §1
# [57] = biological target: Gal4S(b1-4)GlcNAc
# Outline: as §1
# [58] = biological target: Gal4S6S(b1-4)GlcNAc
# Outline: as §1
# [59] = biological target: Gal6S(b1-4)Glc
# Outline: as §1
# [60] = biological target: Gal6S(b1-4)Glc6S
# Outline: as §1
# [61] = biological target: Gal6S(b1-4)GlcNAc
# Outline: as §1
# [62] = biological target: GalNAc(a1-3)Gal
# Outline: as §1
# [63] = biological target: GalNAc(a1-3)GalNAc
# Outline: as §1
# [64] = biological target: GalNAc(b1-3)Gal(a1-4)Gal(b1-4)GlcNAc
# Outline: as §1
# [65] = biological target: GalNAc(b1-3)GalNAc
# Outline: as §1
# [66] = biological target: GalNAc(b1-4)GlcNAc
# Outline: as §1
# [67] = biological target: Glc(a1-4)Glc
# Outline: as §1
# [68] = biological target: Glc(a1-6)Glc(a1-6)Glc
# Outline: as §1
# [69] = biological target: Glc(b1-4)Glc
# Outline: as §1
# [70] = biological target: Glc(b1-6)Glc
# Outline: as §1
# [71] = biological target: GlcA(b1-3)Gal
# Outline: as §1
# [72] = biological target: GlcA(b1-6)Gal
# Outline: as §1
# [73] = biological target: GlcNAc(a1-3)Gal(b1-4)GlcNAc
# Outline: as §1
# [74] = biological target: GlcNAc(a1-6)Gal(b1-4)GlcNAc
# Outline: as §1
# [75] = biological target: GlcNAc(b1-2)Gal(b1-3)GalNAc
# Outline: as §1
binder,measurement,setting,value
"TIM-1 (Mus musculus), AAL35774 (protein) MNQIQVFISGLILLLPGAVDSYVEVKGVVGHPVTLPCTYSTYRGITTTCWGRGQCPSSACQNTLIWTNGHRVTYQKSSRYNLKGHISEGDVSLTIENSVESDSGLYCCRVEIPGWFNDQKVTFSLQVKPEIPTRPPTRPTTTRPTATGRPTTISTRSTHVPTSIRVSTSTPPTSTHTWTHKPEPTTFCPHETTAEVTGIPSHTPTDWNGTVTSSGDTWSNHTEAIPPGKPQKNPTKGFYVGICIAALLLLLLVSTVAITRYILMKRKSASLSVVAFRVSKIEALQNAAVVHSRAEDNIYIVEDRP",glycan array binding signal (z-score),[1],0.622
same,glycan array binding signal (z-score),[2],0.882
same,glycan array binding signal (z-score),[3],1.46
same,glycan array binding signal (z-score),[4],-0.032
same,glycan array binding signal (z-score),[5],-0.121
same,glycan array binding signal (z-score),[6],0.112
same,glycan array binding signal (z-score),[7],0.653
same,glycan array binding signal (z-score),[8],1.2
same,glycan array binding signal (z-score),[9],0.505
same,glycan array binding signal (z-score),[10],0.214
same,glycan array binding signal (z-score),[11],0.223
same,glycan array binding signal (z-score),[12],-0.481
same,glycan array binding signal (z-score),[13],-0.806
same,glycan array binding signal (z-score),[14],-0.062
same,glycan array binding signal (z-score),[15],0.095
same,glycan array binding signal (z-score),[16],-0.427
same,glycan array binding signal (z-score),[17],-0.422
same,glycan array binding signal (z-score),[18],-0.342
same,glycan array binding signal (z-score),[19],-0.606
same,glycan array binding signal (z-score),[20],-0.118
same,glycan array binding signal (z-score),[21],0.521
same,glycan array binding signal (z-score),[22],-0.392
same,glycan array binding signal (z-score),[23],0.287
same,glycan array binding signal (z-score),[24],-0.186
same,glycan array binding signal (z-score),[25],-0.051
same,glycan array binding signal (z-score),[26],0.16
same,glycan array binding signal (z-score),[27],-0.207
same,glycan array binding signal (z-score),[28],-0.409
same,glycan array binding signal (z-score),[29],-0.205
same,glycan array binding signal (z-score),[30],-0.477
same,glycan array binding signal (z-score),[31],-0.663
same,glycan array binding signal (z-score),[32],-0.149
same,glycan array binding signal (z-score),[33],0.19
same,glycan array binding signal (z-score),[34],0.051
same,glycan array binding signal (z-score),[35],-0.038
same,glycan array binding signal (z-score),[36],-0.204
same,glycan array binding signal (z-score),[37],-0.501
same,glycan array binding signal (z-score),[38],-0.193
same,glycan array binding signal (z-score),[39],-0.25
same,glycan array binding signal (z-score),[40],0.594
same,glycan array binding signal (z-score),[41],0.811
same,glycan array binding signal (z-score),[42],-0.333
same,glycan array binding signal (z-score),[43],-0.185
same,glycan array binding signal (z-score),[44],-0.321
same,glycan array binding signal (z-score),[45],-0.538
same,glycan array binding signal (z-score),[46],-0.541
same,glycan array binding signal (z-score),[47],-0.001
same,glycan array binding signal (z-score),[48],-0.492
same,glycan array binding signal (z-score),[49],-0.247
same,glycan array binding signal (z-score),[50],-0.02
same,glycan array binding signal (z-score),[51],-0.376
same,glycan array binding signal (z-score),[52],-0.104
same,glycan array binding signal (z-score),[53],-0.614
same,glycan array binding signal (z-score),[54],-0.709
same,glycan array binding signal (z-score),[55],-0.746
same,glycan array binding signal (z-score),[56],-0.411
same,glycan array binding signal (z-score),[57],-0.19
same,glycan array binding signal (z-score),[58],-0.402
same,glycan array binding signal (z-score),[59],-0.128
same,glycan array binding signal (z-score),[60],-0.247
same,glycan array binding signal (z-score),[61],-0.405
same,glycan array binding signal (z-score),[62],-0.406
same,glycan array binding signal (z-score),[63],-0.494
same,glycan array binding signal (z-score),[64],-0.153
same,glycan array binding signal (z-score),[65],-0.61
same,glycan array binding signal (z-score),[66],-0.264
same,glycan array binding signal (z-score),[67],0.384
same,glycan array binding signal (z-score),[68],-0.068
same,glycan array binding signal (z-score),[69],-0.218
same,glycan array binding signal (z-score),[70],0.034
same,glycan array binding signal (z-score),[71],2.46
same,glycan array binding signal (z-score),[72],2.12
same,glycan array binding signal (z-score),[73],0.43
same,glycan array binding signal (z-score),[74],-0.264
same,glycan array binding signal (z-score),[75],-0.376

# In a second layout: results already given.
binder	measurement	setting	value
TIM-1 (Mus musculus), AAL35774 (protein) MNQIQVFISGLILLLPGAVDSYVEVKGVVGHPVTLPCTYSTYRGITTTCWGRGQCPSSACQNTLIWTNGHRVTYQKSSRYNLKGHISEGDVSLTIENSVESDSGLYCCRVEIPGWFNDQKVTFSLQVKPEIPTRPPTRPTTTRPTATGRPTTISTRSTHVPTSIRVSTSTPPTSTHTWTHKPEPTTFCPHETTAEVTGIPSHTPTDWNGTVTSSGDTWSNHTEAIPPGKPQKNPTKGFYVGICIAALLLLLLVSTVAITRYILMKRKSASLSVVAFRVSKIEALQNAAVVHSRAEDNIYIVEDRP	glycan array binding signal (z-score)	[12]	-0.481
same	glycan array binding signal (z-score)	[15]	0.095
same	glycan array binding signal (z-score)	[45]	-0.538
same	glycan array binding signal (z-score)	[63]	-0.494
